Assay results as given in US10383847B2 (priority 2012, dated 2019).

Test system: human kinases
Experiment: competition binding kinase scan, selectivity score
Details: 385 non-mutant kinases, screening concentration 50000 nm

For CN1C(=O)/C(=C2/C(=O)Nc3ccccc32)c2ccccc21 [Meisoindigo, 3-(1,2-dihydro-2-oxo-3H-indol-3-ylidene)-1,3-dihydro-1-methyl-2H-indol-2-one], the “Number of Hits” value (S(1): % Ctrl <1) was 0, the “Number of Hits” value (S(10): % Ctrl <10) was 0 and the “Number of Hits” value (S(35): % Ctrl <35) was 1.
